According to paper PMC3636440:
These are yes or no findings as the source states them, for the method shown. Some results given as binding are weak or reduced against the parent protein; the word gives no strength. Sequences can lack the tags named with a protein.

How the values were obtained:
[1] = molecular target: T1, GAL4-BD fusion of the glutamic acid (GA)-rich region of Stra8 (Stra8^GA) (mouse) (UniProt P70278); experiment: two-hybrid; direct-Y2H: purified prey clone co-transformed with bait construct or empty pGBKT7 into AH109; SD/-Leu/-Trp, then SD/-Leu/-Trp/-His/-Ade and X-alpha-Gal plates
T1 sequence: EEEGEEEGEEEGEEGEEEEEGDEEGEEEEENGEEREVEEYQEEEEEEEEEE

[2] = molecular target: T1, GAL4-BD fusion of the glutamic acid (GA)-rich region of Stra8 (Stra8^GA) (mouse); experiment: two-hybrid; GAL4-based library screen: mouse maGSC cDNA library (pGADT7-Rec, AH109) mated with Y187 carrying pGBKT7-Stra8^GA; selection on SD/-Leu/-Trp/-His/-Ade and X-alpha-Gal; auto-activating clones excluded by direct-Y2H

- binding [1]: binds
- binding [2]: binds
B1: AT-rich interactive domain 4B (Arid4B), C-terminal region prey clone (domain or fragment, UniProt A2CG63-1 1119-1314)
chain: KRVKDTQGVGSSSKKQKRSHKATVVNNKKKGKGTNSSDSEELSAGESVTKTQTIKSVPTGMKTHNSKSPARVQSPGKGGRNGDKDPDLKEPSNRLPKVYKWSFQTSDLENMTSAERISILQEKLQEIRKHYLSLKSEVASIDRRRKRLKKKERESAATSSSSSSPSSSSITAAVMLTLAEPSMSSASQNGMSVECR
